No constants are given. Whether binding was seen depends on the method and setting.

This test addresses LDVICp016-10His (Lymphocystis disease virus, isolate LCDV-C). The test can be described thus: SPR; LDVICp016L-His (500 ng) covalently coupled to a CM4 Biacore chip; ligands injected at 100 nM in HBS buffer, 25°C, 30 μl/min, 3 min association, 2 min dissociation; reference cell and blank subtracted; both purified. For orientation: In SPR one partner is held on a chip, and binding of the other changes the refractive index at the surface.

B1: human TNFSF11 (ligand, UniProt O14788)
chain: IRAEKAMVDGSWLDLAKRSKLEAQPFAHLTINATDIPSGSHKVSLSSWYHDRGWAKISNMTFSNGKLIVNQDGFYYLYANICFRHHETSGDLATEYLQLMVYVTKTSIKIPSSHTLMKGGSTKYWSGNSEFHFYSINVGGFFKLRSGEEISIEVSNPSLLDPDQDATYFGAFKVRDID
With B1, the binding entry is “no binding (tested: 100 nM)”.

B2: human TNFSF15 (ligand, UniProt O95150)
chain: LKGQEFAPSHQQVYAPLRADGDKPRAHLTVVRQTPTQHFKNQFPALHWEHELGLAFTKNRMNYTNKFLLIPESGDYFIYSQVTFRGMTSECSEIRQAGRPNKPDSITVVITKVTDSYPEPTQLLMGTKSVCEVGSNWFQPIYLGAMFSLQEGDKLMVNVSDISLVDYTKEDKTFFGAFLL
Take B2: the binding entry is listed as “no binding (tested: 100 nM)”.

For the origin of these results see publication PMC3691878.
